Laboratory results: PubChem BioAssay AID1159578 (Peter MacCallum Cancer Centre, 2015)
In all, the deposit lists about 18,000 reagents; this is an unselected part. About 1,030 of all reagents (5.7%) count as active. 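Inactive calls also include pools with fewer than 3300 nuclei, whose migration was not assessed.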 The raw values are shown without normalisation. Further read-outs or replicates are left out here.

- Assay: 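Knock-downs that alter how fast lymphatic endothelial cells migrate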 (primary screen)
- Cells: human lymphatic endothelial cells
- Knock-down reagent: siRNA pool against human genes, 40 nM
- Timing: 48 h after transfection
- Read-out: 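High-content imaging of dye-stained cells in a scratch assay measures filled wound area and nuclei per well; duplicate means given as ratio to mock and robust z-score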
- Scale: migration robust z-score: higher = faster migration into the scratch; nuclei per well: higher = more cells in the well
- Rule for the call: 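Pools averaging fewer than 3300 nuclei are never called; remaining pools count as changed when migration robust z lies outside -2 to 2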
- Calls: active = migration changed; inactive = no migration change, or too few cells

With CUL4A, how do the results read?
migration robust z-score: 0.93; nuclei per well, duplicate mean: 5528; call: inactive

For PCDHA4, what was measured?
migration robust z-score: 2.18; nuclei per well, duplicate mean: 7321; call: active

With RNASE2, how do the results read?
migration robust z-score: 1.32; nuclei per well, duplicate mean: 4982; call: inactive

What did the screen give for NCBP3?
migration robust z-score: -0.82; nuclei per well, duplicate mean: 7806; call: inactive

What did the screen give for LHFPL1?
migration robust z-score: 0.84; nuclei per well, duplicate mean: 5046; call: inactive

What did the screen give for KCNH8?
migration robust z-score: -2.99; nuclei per well, duplicate mean: 2973; call: inactive

How did the screen score KRTAP12-2?
migration robust z-score: -2.66; nuclei per well, duplicate mean: 4264; call: active

Which result is listed for MROH8?
migration robust z-score: 0.17; nuclei per well, duplicate mean: 4862; call: inactive

For TCIM, how do the results read?
migration robust z-score: -1.53; nuclei per well, duplicate mean: 5407; call: inactive

For SEC31A, how do the results read?
migration robust z-score: -1.57; nuclei per well, duplicate mean: 3982; call: inactive

How did the screen score BANF2?
migration robust z-score: -0.9; nuclei per well, duplicate mean: 6604; call: inactive

With PSMC5, what does the deposit list?
migration robust z-score: -1.56; nuclei per well, duplicate mean: 4580; call: inactive

For NANOS2, what does the deposit list?
migration robust z-score: -0.88; nuclei per well, duplicate mean: 4776; call: inactive

What is on record for SCNN1G?
migration robust z-score: -0.26; nuclei per well, duplicate mean: 7412; call: inactive

With RIPK2, how do the results read?
migration robust z-score: -0.88; nuclei per well, duplicate mean: 4854; call: inactive

For PSCA, how do the results read?
migration robust z-score: 0.14; nuclei per well, duplicate mean: 5268; call: inactive

For RFC2, what does the deposit list?
migration robust z-score: 0.44; nuclei per well, duplicate mean: 5595; call: inactive

Copied from the listing (4 entries):
SCNN1G → migration robust z-score = -0.26; nuclei per well, duplicate mean = 7412; call = inactive
RIPK2 → migration robust z-score = -0.88; nuclei per well, duplicate mean = 4854; call = inactive
PSCA → migration robust z-score = 0.14; nuclei per well, duplicate mean = 5268; call = inactive
RFC2 → migration robust z-score = 0.44; nuclei per well, duplicate mean = 5595; call = inactive

Additional entries follow.
Which result is listed for ARTN?
migration robust z-score: -0.9; nuclei per well, duplicate mean: 5912; call: inactive

How did the screen score GADD45GIP1?
migration robust z-score: -0.12; nuclei per well, duplicate mean: 6074; call: inactive

For TICAM2, what does the deposit list?
migration robust z-score: 0.39; nuclei per well, duplicate mean: 6242; call: inactive

With SLC25A4, what does the deposit list?
migration robust z-score: -1.04; nuclei per well, duplicate mean: 5235; call: inactive

With PTGR3, how do the results read?
migration robust z-score: -1.74; nuclei per well, duplicate mean: 5426; call: inactive

For TPRX1, what was measured?
migration robust z-score: -1.13; nuclei per well, duplicate mean: 6232; call: inactive

For KRTAP3-3, what was measured?
migration robust z-score: -0.84; nuclei per well, duplicate mean: 5108; call: inactive

What did the screen give for LINC00518?
migration robust z-score: -2.04; nuclei per well, duplicate mean: 5980; call: active

With RIMOC1, what was measured?
migration robust z-score: -1.23; nuclei per well, duplicate mean: 4774; call: inactive

With NPTX1, what was measured?
migration robust z-score: -0.5; nuclei per well, duplicate mean: 5377; call: inactive
